The numbers were not newly measured in PMC4440699 (MedChemComm, 2014), which cites them from elsewhere.

For data set [1] the following is noted: read-out: KD, binding to Zn^++; under the same conditions; cited from earlier work.
For the next data set, the system named is MV4-11 leukemia cells. The conditions noted are these: read-out: IC50 against MV4-11 leukemia cells in vitro; cited from earlier work.

In the case of `O=C(CCCCCCC(=O)Nc1ccccc1)NO` [SAHA, suberanilohydroxamic acid], the Kd (in general, a measure of binding affinity in units of concentration) in data set [1] was 2500 µM. Besides, the IC50 (commonly the midpoint of a concentration-inhibition curve) in the data set with MV4-11 leukemia cells was 0.7 µM.
